Results reported in patent US20170189504A1, “NOVEL PEPTIDES AND COMBINATION OF PEPTIDES FOR USE IN IMMUNOTHERAPY AGAINST VARIOUS CANCERS” (immatics biotechnologies GmbH, priority 2015, published 2017).

Test system: HLA-A*24
Assay: Identification and relative LC-MS quantitation of HLA-A*24-presented tumor-associated peptides on tissue samples (presentation profiles, Tables 14A, 14B, 16, FIG. 1)
Parameters: species or system human; key to Presentation score GC / Presentation score NSCLC / Presentation score PCA / Presentation score GB / Presentation score HCC / Presentation score RCC: specifically presented on tumors (++++); very highly over-presented on tumors compared to a panel of normal tissues (+++); highly over-presented on tumors compared to a panel of normal tissues (++); over-presented on tumors compared to a panel of normal tissues (+)
Details: for Presentation score GB / Presentation score NSCLC / Presentation score HCC / Presentation score PCA / Presentation score GC / Presentation score RCC: HLA-A*24 peptides; for Presentation score GB: glioblastoma (N = 18) vs panel of normal tissues (N = 70); for Presentation score NSCLC: non-small cell lung cancer (N = 91) vs panel of normal tissues (N = 70); for Presentation score HCC: hepatocellular carcinoma (N = 15) vs panel of normal tissues (N = 70); for Presentation score PCA: prostate cancer (N = 40) vs panel of normal tissues (N = 70); for Presentation score GC: gastric cancer (N = 44) vs panel of normal tissues (N = 70); for number of cancer tissues where the peptide was found to be presented: only samples with presentation shown; for Presentation score RCC: renal cell carcinoma (N = 2) vs panel of normal tissues (N = 70)
[1] = Table 14A, HLA-A*24-binding tumor-associated peptides, cancer entities on which the peptide was found presented
[2] = HLA-A*24-binding peptides, additional cancer entities, GB = glioblastoma, HCC = hepatocellular carcinoma, NSCLC = non-small cell lung cancer, PCA = prostate cancer

Substance | Presentation score GB | Presentation score NSCLC | Peptide Presentation on cancer entities [1] | Presentation score GC | further results
273 (TYIKPISKL; listed as Homo sapiens) [compound 273] | ++++ | ++++ | GB, NSCLC |  | 
193 (RFHPTPLLL; listed as Homo sapiens) [compound 193] |  | ++++ | NSCLC, HCC, PCA |  | Presentation score HCC: ++++; Presentation score PCA: ++++
161 (IYLVSIPEL; listed as Homo sapiens) [compound 161] |  | ++++ | GC, NSCLC, PCA | ++++ | Presentation score PCA: ++++
215 (YFDKVVTL; listed as Homo sapiens) [compound 215] |  | ++++ | NSCLC, HCC |  | Presentation score HCC: ++++
194 (EFGSLHLEFL; listed as Homo sapiens) [compound 194] | ++++ |  |  |  | 
270 (NYYEVHKELF; listed as Homo sapiens) [compound 270] | ++++ | ++++ | GB, GC, NSCLC | ++++ | number of cancer tissues where the peptide was found to be presented (FIG. 1, A*24 positive samples): 14
175 (YYEVHKELF; listed as Homo sapiens) [compound 175] |  | ++++ | GC, NSCLC, HCC | ++++ | Presentation score HCC: ++++
209 (TYKDEGNDYF; listed as Homo sapiens) [compound 209] | +++ | + | GB, NSCLC |  | 
297 (PFLQASPHF; listed as Homo sapiens) [compound 297] |  | +++ | GC, NSCLC | +++ | 
227 (IFLDYEAGTLSF; listed as Homo sapiens) [compound 227] |  |  | GC, RCC | +++ | Peptide Presentation on cancer entities [2]: NSCLC; Presentation score RCC: +++
298 (RYLEGTSCI; listed as Homo sapiens) [compound 298] | + |  | GB, GC, NSCLC, HCC |  | 
206 (EYQENFLSF; listed as Homo sapiens) [compound 206] |  |  | NSCLC, PCA |  | 
267 (KYMVYPQTF; listed as Homo sapiens) [compound 267] | +++ | +++ | GB, GC, NSCLC, HCC, PCA | +++ | Presentation score HCC: +++; Presentation score PCA: +++
289 (KYPVEWAKF; listed as Homo sapiens) [compound 289] |  |  | PCA, RCC |  | Presentation score PCA: +++; Presentation score RCC: +++
179 (MYDSYWRQF; listed as Homo sapiens) [compound 179] | ++++ | ++++ | GB, NSCLC |  | 
271 (LYHDIFSRL; listed as Homo sapiens) [compound 271] |  | ++++ | GC, NSCLC, HCC | ++++ | Presentation score HCC: ++++
197 (EYSLFPGQVVI; listed as Homo sapiens) [compound 197] |  |  | GB, GC, NSCLC, HCC, PCA | + | Presentation score PCA: +
280 (RYPDNLKHLYL; listed as Homo sapiens) [compound 280] |  |  | GC, NSCLC, HCC |  | Presentation score HCC: +
163 (DYLKGLASF; listed as Homo sapiens) [compound 163] | ++++ | ++++ | GB, GC, NSCLC | ++++ | Peptide Presentation on cancer entities [2]: PCA
295 (YYPGVILGF; listed as Homo sapiens) [compound 295] | ++++ | ++++ | GB, NSCLC, RCC |  | Presentation score RCC: ++++
173 (IYSWILDHF; listed as Homo sapiens) [compound 173] |  | ++++ | GC, NSCLC, HCC, RCC | ++++ | Presentation score HCC: ++++; Presentation score RCC: ++++
225 (YYVYIMNHL; listed as Homo sapiens) [compound 225] |  | ++ | GB, NSCLC |  | 

Substance | Presentation score GB | Presentation score NSCLC | Peptide Presentation on cancer entities [1] | Presentation score GC | further results
178 (IFIEVFSHF; listed as Homo sapiens) [compound 178] |  | ++++ | GC, NSCLC | ++++ | Peptide Presentation on cancer entities [2]: HCC
296 (TYVDSSHTI; listed as Homo sapiens) [compound 296] |  |  | GB, GC, NSCLC, HCC, PCA |  | 
198 (LYLDKATLI; listed as Homo sapiens) [compound 198] |  | + | GB, GC, NSCLC, HCC, PCA | ++ | Presentation score HCC: ++
211 (YYLEVGKTLI; listed as Homo sapiens) [compound 211] |  |  | GC, NSCLC, HCC | +++ | 
167 (NYINRILKL; listed as Homo sapiens) [compound 167] |  |  |  | ++++ | Peptide Presentation on cancer entities [2]: NSCLC
217 (FFPPTRQMGLLF; listed as Homo sapiens) [compound 217] |  |  |  | ++++ | 
213 (IFDEAEKL; listed as Homo sapiens) [compound 213] |  | ++ | NSCLC, PCA |  | Presentation score PCA: +++
222 (TFSVSSHLF; listed as Homo sapiens) [compound 222] |  | + | GB, NSCLC, HCC |  | Presentation score HCC: +
300 (AYVLRLETL; listed as Homo sapiens) [compound 300] | +++ | +++ | GB, GC, NSCLC, RCC | +++ | Presentation score RCC: +++
226 (VYRDETGELF; listed as Homo sapiens) [compound 226] |  |  | GB, NSCLC, HCC, PCA |  | 
299 (VYFVAPAKF; listed as Homo sapiens) [compound 299] |  | ++ | GC, NSCLC |  | 
286 (RYPDNLKHL; listed as Homo sapiens) [compound 286] |  | + | NSCLC, HCC, PCA |  | Presentation score HCC: ++
287 (LYITEPKTI; listed as Homo sapiens) [compound 287] | + |  | GB, GC, NSCLC, HCC | + | number of cancer tissues where the peptide was found to be presented (FIG. 1, A*24 positive samples): 12
202 (VYWDSAGAAHF; listed as Homo sapiens) [compound 202] |  | + | NSCLC |  | 
190 (GFFIFNERF; listed as Homo sapiens) [compound 190] |  | ++++ | NSCLC, PCA |  | Presentation score PCA: ++++
172 (TYTTVPRVAF; listed as Homo sapiens) [compound 172] | ++++ |  | GB, RCC |  | Presentation score RCC: ++++
203 (FYSRLLQKF; listed as Homo sapiens) [compound 203] |  |  | GC, NSCLC | + | number of cell lines where the peptide was found to be presented (FIG. 1, A*24 positive samples, cell lines include benign prostate hyperplasias): 1; number of cancer tissues where the peptide was found to be presented (FIG. 1, A*24 positive samples): 15
168 (KYQDILETI; listed as Homo sapiens) [compound 168] |  | ++++ | NSCLC, PCA |  | Presentation score PCA: ++++
176 (EYNQWFTKL; listed as Homo sapiens) [compound 176] |  | ++++ | GC, NSCLC | ++++ | 
186 (IFPQFLYQF; listed as Homo sapiens) [compound 186] |  | ++++ | GC, NSCLC | ++++ | 
218 (YYKSTSSAF; listed as Homo sapiens) [compound 218] | ++ | ++ | GB, GC, NSCLC, HCC, PCA | + | Peptide Presentation on cancer entities [2]: SCLC
174 (VYVGGGQIIHL; listed as Homo sapiens) [compound 174] | ++++ | ++++ | GB, GC, NSCLC | ++++ | 
